# Structures can show the parent of a compound that is named as a salt. Some entries share one result that the patent states for a list of compounds.
# By UniProt entry, the sequences of proteins in these tests, tags left out. Residues count along the entry.
# UniProt Q13490, 267-363: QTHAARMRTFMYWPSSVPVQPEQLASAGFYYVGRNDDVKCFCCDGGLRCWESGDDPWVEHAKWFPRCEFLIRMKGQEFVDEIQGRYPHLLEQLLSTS
# Molecular target: T1, BIR3 domain of human cIAP-1 (residues 267-363) (Homo sapiens, UniProt Q13490)
# T1 construct: human cIAP-1 (residues 267-363) fused to a GST-tag; GST-tag (cleaved yes); made in house; host or cells: Escherichia coli
# Assay: cIAP-1 in vitro competitive displacement binding assay (fluorescence polarization)
# Conditions: or at least 50% inhibition of the activity at the stated concentration; read-out: IC50 in the cIAP1 assay
row,SMILES,IC50 [nM]
1,"CCC1CN(C[C@H]2CN[C@H](C)CN2CC(=O)N2CC(C)(C)c3cnc(Cc4ccc(F)cc4F)cc32)C(=O)CO1 (single isomer, unassigned) [Example 80, 4-{[(2R,5R)-1-(2-{6-[(2,4-Difluorophenyl)methyl]-3,3-dimethyl-1H,2H,3H-pyrrolo[3,2-c]pyridin-1-yl}-2-oxoethyl)-5-methylpiperazin-2-yl]methyl}-(R or S)-6-ethylmorpholin-3-one dihydrochloride]",< 100
2,"CCCC(O)c1cnc2c(c1)N(C(=O)CN1C[C@@H](C)NC[C@@H]1CN1Cc3ccccc3C1=O)CC2(C)C (single isomer, unassigned) [Example 91, dihydrochloride]",< 100
3,"C[C@@H]1CN(CC(=O)N2CC(C)(C)c3cnc(Cc4ccc(F)cc4F)cc32)[C@@H](CN2Cc3ncccc3C2=O)CN1 [Example 63, 6-{[(2R,5R)-1-(2-{6-[(2,4-Difluorophenyl)methyl]-3,3-dimethyl-1H,2H,3H-pyrrolo[3,2-c]pyridin-1-yl}-2-oxoethyl)-5-methylpiperazin-2-yl]methyl}-5H,6H,7H-pyrrolo[3,4-b]pyridin-5-one]",< 100
4,"C[C@@H]1CN(CC(=O)N2CC(C)(C)c3nnc(Cc4ccc(F)cc4F)cc32)[C@@H](CN2Cc3ncccc3C2=O)CN1 [Example 64, 6-{[(2R,5R)-1-(2-{3-[(2,4-Difluorophenyl)methyl]-7,7-dimethyl-5H,6H,7H-pyrrolo[3,2-c]pyridazin-5-yl}-2-oxoethyl)-5-methylpiperazin-2-yl]methyl}-5H,6H,7H-pyrrolo[3,4-b]pyridin-5-one]",< 100
5,"C[C@@H]1CN(CC(=O)N2CC(C)(C)c3nnc(Cc4ccc(F)cc4)cc32)[C@@H](CN2Cc3ncccc3C2=O)CN1 [Example 65, 6-{[(2R,5R)-1-(2-{3-[(4-Fluorophenyl)methyl]-7,7-dimethyl-5H,6H,7H-pyrrolo[3,2-c]pyridazin-5-yl}-2-oxoethyl)-5-methylpiperazin-2-yl]methyl}-5H,6H,7H-pyrrolo[3,4-b]pyridin-5-one]",< 100
6,"C[C@@H]1CC(=O)N(C[C@H]2CN[C@H](C)CN2CC(=O)N2CC(C)(C)c3ncc(Cc4ccc(F)cc4F)cc32)C1 [Example 70, (4R)-1-{[(2R,5R)-1-(2-{6-[(2,4-Difluorophenyl)methyl]-3,3-dimethyl-1H,2H,3H-pyrrolo[3,2-b]pyridin-1-yl}-2-oxoethyl)-5-methylpiperazin-2-yl]methyl}-4-methylpyrrolidin-2-one dihydrochloride]",< 100
7,"CCCC(F)(F)c1cc2c(cn1)C(C)(C)CN2C(=O)CN1C[C@@H](C)NC[C@@H]1CN1C[C@H](C)CC1=O [Example 72, (4R)-1-{[(2R,5R)-1-{2-[6-(1,1-Difluorobutyl)-3,3-dimethyl-1H,2H,3H-pyrrolo[3,2-c]pyridin-1-yl]-2-oxoethyl}-5-methylpiperazin-2-yl]methyl}-4-methylpyrrolidin-2-one dihydrochloride]",< 100
8,"C[C@H]1CC(=O)N(C[C@H]2CN[C@H](C)CN2CC(=O)N2CC(C)(C)c3ncc(Cc4ccc(F)cc4F)cc32)C1 [Example 73, (4S)-1-{[(2R,5R)-1-(2-{6-[(2,4-Difluorophenyl)methyl]-3,3-dimethyl-1H,2H,3H-pyrrolo[3,2-b]pyridin-1-yl}-2-oxoethyl)-5-methylpiperazin-2-yl]methyl}-4-methylpyrrolidin-2-one dihydrochloride]",< 100
9,"C[C@H]1CC(=O)N(C[C@H]2CN[C@H](C)CN2CC(=O)N2CC(C)(C)c3cnc(Cc4ccc(F)cc4F)cc32)C1 [Example 74, (4S)-1-{[(2R,5R)-1-(2-{6-[(2,4-Difluorophenyl)methyl]-3,3-dimethyl-1H,2H,3H-pyrrolo[3,2-c]pyridin-1-yl}-2-oxoethyl)-5-methylpiperazin-2-yl]methyl}-4-methylpyrrolidin-2-one dihydrochloride]",< 100
10,"CCCC(F)(F)c1cc2c(cn1)C(C)(C)CN2C(=O)CN1C[C@@H](C)NC[C@@H]1CN1C[C@@H](C)CC1=O [Example 75, (4S)-1-{[(2R,5R)-1-{2-[6-(1,1-Difluorobutyl)-3,3-dimethyl-1H,2H,3H-pyrrolo[3,2-c]pyridin-1-yl]-2-oxoethyl}-5-methylpiperazin-2-yl]methyl}-4-methylpyrrolidin-2-one dihydrochloride]",< 100
11,"C[C@@H]1CN(CC(=O)N2CC(C)(C)c3cnc(Cc4ccc(F)cc4F)cc32)[C@@H](CN2Cc3ccccc3C2=O)CN1 [Example 77, 2-{[(2R,5R)-1-(2-{6-[(2,4-Difluorophenyl)methyl]-3,3-dimethyl-1H,2H,3H-pyrrolo[3,2-c]pyridin-1-yl}-2-oxoethyl)-5-methylpiperazin-2-yl]methyl}-2,3-dihydro-1H-isoindol-1-one dihydrochloride]",< 100
12,"CCCC(F)(F)c1cc2c(cn1)C(C)(C)CN2C(=O)CN1C[C@@H](C)NC[C@@H]1CN1Cc2ccncc2C1=O [Example 78, 2-{[(2R,5R)-1-{2-[6-(1,1-Difluorobutyl)-3,3-dimethyl-1H,2H,3H-pyrrolo[3,2-c]pyridin-1-yl]-2-oxoethyl}-5-methylpiperazin-2-yl]methyl}-1H,2H,3H-pyrrolo[3,4-c]pyridin-3-one dihydrochloride]",< 100
13,"C[C@@H]1CN(CC(=O)N2CC(C)(C)c3cnc(Cc4ccc(F)cc4F)cc32)[C@@H](CN2C[C@H](C)N(C)CC2=O)CN1 [Example 81, (5S)-1-{[(2R,5R)-1-(2-{6-[(2,4-Difluorophenyl)methyl]-3,3-dimethyl-1H,2H,3H-pyrrolo[3,2-c]pyridin-1-yl}-2-oxoethyl)-5-methylpiperazin-2-yl]methyl}-4,5-dimethylpiperazin-2-one dihydrochloride]",< 100
14,"C[C@@H]1CN(CC(=O)N2CC(C)(C)c3ncc([C@H](O)c4ccc(F)cc4)cc32)[C@@H](CN2Cc3ccccc3C2=O)CN1 [Example 84, 2-{[(2R,5R)-1-(2-{6-[(R)-(4-Fluorophenyl)(hydroxy)methyl]-3,3-dimethyl-1H,2H,3H-pyrrolo[3,2-b]pyridin-1-yl}-2-oxoethyl)-5-methylpiperazin-2-yl]methyl}-2,3-dihydro-1H-isoindol-1-one dihydrochloride]",< 100
15,"C[C@@H]1CN(CC(=O)N2CC(C)(C)c3cnc(Cc4ccc(F)cc4F)cc32)[C@@H](CN2C[C@@H](C)N(C)CC2=O)CN1 [Example 85, (5R)-1-{[(2R,5R)-1-(2-{6-[(2,4-Difluorophenyl)methyl]-3,3-dimethyl-1H,2H,3H-pyrrolo[3,2-c]pyridin-1-yl}-2-oxoethyl)-5-methylpiperazin-2-yl]methyl}-4,5-dimethylpiperazin-2-one dihydrochloride]",< 100
16,"C[C@@H]1CN(CC(=O)N2CC(C)(C)c3ncc(Cc4ccc(F)cc4F)cc32)[C@@H](CN2Cc3ccc(C#N)cc3C2=O)CN1 [Example 112, 2-{[(2R,5R)-1-(2-{6-[(2,4-Difluorophenyl)methyl]-3,3-dimethyl-1H,2H,3H-pyrrolo[3,2-b]pyridin-1-yl}-2-oxoethyl)-5-methylpiperazin-2-yl]methyl}-3-oxo-2,3-dihydro-1H-isoindole-5-carbonitrile dihydrochloride]",< 100
17,"C[C@@H]1CN(CC(=O)N2CC(C)(C)c3nnc(Cc4ccc(F)cc4F)cc32)[C@@H](CN2Cc3cccc(F)c3C2=O)CN1 [Example 113, 2-{[(2R,5R)-1-(2-{3-[(2,4-Difluorophenyl)methyl]-7,7-dimethyl-5H,6H,7H-pyrrolo[3,2-c]pyridazin-5-yl}-2-oxoethyl)-5-methylpiperazin-2-yl]methyl}-7-fluoro-2,3-dihydro-1H-issoindol-1-one dihydrochloride]",< 100
18,"C[C@@H]1CN(CC(=O)N2CC(C)(C)c3nnc(Cc4ccc(F)cc4F)cc32)[C@@H](CN2Cc3ccc(O)cc3C2=O)CN1 [Example 115, 2-{[(2R,5R)-1-(2-{3-[(2,4-Difluorophenyl)methyl]-7,7-dimethyl-5H,6H,7H-pyrrolo[3,2-c]pyridazin-5-yl}-2-oxoethyl)-5-methylpiperazin-2-yl]methyl}-6-hydroxy-2,3-dihydro-1H-isoindol-1-one dihydrochloride]",< 100
19,"C[C@@H]1CN(CC(=O)N2CC(C)(C)c3ncc(Cc4ccc(F)cc4F)cc32)[C@@H](CN2Cc3c(O)cccc3C2=O)CN1 [Example 118, 2-{[(2R,5R)-1-(2-{6-[(2,4-Difluorophenyl)methyl]-3,3-dimethyl-1H,2H,3H-pyrrolo[3,2-b]pyridin-1-yl}-2-oxoethyl)-5-methylpiperazin-2-yl]methyl}-4-hydroxy-2,3-dihydro-1H-isoindol-1-one dihydrochloride]",< 100

# Tested on: EVSA-T (human breast carcinoma)
# Assay: Anti-proliferative activity, Alamar Blue assay, EVSA-T
# Type: cell-based
# Conditions: read-out: EC50 in EVSA-T cell line assays
row,SMILES,EC50 [nM]
1,"CCC1CC(=O)N(C[C@H]2CN[C@H](C)CN2CC(=O)N2CC(C)(C)c3ncc(Cc4ccc(F)cc4)cc32)C1 (single isomer, unassigned) [Example 86, (4R or 4S)-4-Ethyl-1-{[(2R,5R)-1-(2-{6-[(4-fluorophenyl)methyl]-3,3-dimethyl-1H,2H,3H-pyrrolo[3,2-b]pyridin-1-yl}-2-oxoethyl)-5-methylpiperazin-2-yl]methyl}pyrrolidin-2-one dihydrochloride]",< 1000
2,"CCCC(F)(F)c1cc2c(cn1)C(C)(C)CN2C(=O)CN1C[C@@H](C)NC[C@@H]1CN1CC(CC)OCC1=O (single isomer, unassigned) [Example 89, 4-{[(2R,5R)-1-{2-[6-(1,1-Difluorobutyl)-3,3-dimethyl-1H,2H,3H-pyrrolo[3,2-c]pyridin-1-yl]-2-oxoethyl}-5-methylpiperazin-2-yl]methyl}-(R or S)-6-ethylmorpholin-3-one dihydrochloride]",< 1000
3,"CCCC(O)c1cnc2c(c1)N(C(=O)CN1C[C@@H](C)NC[C@@H]1CN1Cc3ccccc3C1=O)CC2(C)C (single isomer, unassigned) [Example 91, dihydrochloride]",< 1000

# Source: US9617283B2, “Bicyclic heterocycle compounds and their uses in therapy” (ASTEX THERAPEUTICS LIMITED, priority 2012, dated 2017)
